In the supplement of paper PMC7125110:
± gives the standard error. The uncertainty is large for many entries.

B1: glmS ribozyme (parent)
chain: AUAAAAGCGCCAGAACUACAGAAAUGUAGUUGACGAGGAGGAGGUUUAUCGAAUUUUCGGCGGAUGCCUCCAAA

Variants of: B1
Assay: KM; higher = weaker cofactor use; RNA array
Conditions: with glucosamine-6-phosphate
Procedure, shortened: (§1)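 Tiles bearing barcoded ribozyme variants, transcribed in situ by E. coli RNA polymerase on sequenced MiSeq chips, were imaged over ~14 h at 37 °C using a hybridised Cy3 probe. Glucosamine-6-phosphate was supplied at 40 μM to 10 mM in HEPES/KCl/Mg(OAc)2 buffer. kobs came from one- or two-exponential decay fits to normalised per-tile medians, and weighted Michaelis–Menten fits then provided kcat and KM.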

Variant	KM
U56C U69C	1140 ± 1100 µM
G35C C50G	3630 ± 2100 µM
G35C U56A G59A	1090 ± 730 µM
A39U G59A	1080 ± 620 µM
G29A U30G	2240 ± 1200 µM
C16G C70G	100 ± 87 µM
G62C G63C	36 ± 33 µM
U31A C50G U65C C67U	20.3 ± 19 µM
U54C C67U	222 ± 130 µM
U54C C67G	534 ± 220 µM
U30A C70G	79.2 ± 67 µM
G29U A52C	96.2 ± 94 µM
G44A U54C	8260 ± 990 µM
U49G A64G	2620 ± 1500 µM
U54A C71U	79.9 ± 58 µM
A33U C68U	769 ± 470 µM
U46C U57C	3690 ± 1900 µM
G40U A42U	812 ± 440 µM
U31C C71A	1470 ± 630 µM
G29A U56C	3420 ± 2100 µM
A33G C58G	198 ± 140 µM
G66A C68A	917 ± 610 µM

Copied from the list.
U46C U57C – KM: 3690 ± 1900 µM
G66A C68A – KM: 917 ± 610 µM
G35C C50G – KM: 3630 ± 2100 µM
G62C G63C – KM: 36 ± 33 µM

Going on with the list:

Variant	KM
G29C U65G	4400 ± 1000 µM
A39C U45C	3080 ± 440 µM
A64U U65G	487 ± 360 µM
A42U C71A	8200 ± 6200 µM
U57A C58U	17300 ± 1200 µM
G40A A42G	1900 ± 820 µM
A48U U65A	18200 ± 2300 µM
A48U U65C	622 ± 430 µM
U30A U31C	4300 ± 500 µM
U30A G40A	5310 ± 3700 µM
U47G A53G U57C C68U	2460 ± 2000 µM
A42G U57A	875 ± 480 µM
G41U A42U	1210 ± 800 µM
G41A U46A	1480 ± 630 µM
G60C C70G	1420 ± 1300 µM
U55G G62U	292 ± 160 µM
A53U U69A	64.5 ± 38 µM
U31G C71U	3220 ± 1900 µM
G43A U56G	3400 ± 58 µM
U46C C71U	1240 ± 290 µM
U46G U49G	982 ± 610 µM
U31G A33U	4090 ± 910 µM

Variant	KM
G60U C67A C68U	60.6 ± 48 µM
U31A G44U	3960 ± 530 µM
C16G A64G	2050 ± 1500 µM
C58G C71U	402 ± 99 µM
A33C A42G	5240 ± 1500 µM
G32U U49G	1040 ± 820 µM
A53U C58A	3010 ± 250 µM
G32A G44A	42100 ± 13000 µM
C34U G60A	18.1 ± 15 µM
A33U U54A C68A	67.6 ± 46 µM
U54C C68G	446 ± 250 µM
A36C G63C	77.8 ± 46 µM
U30G C58U	2000 ± 1100 µM
G41U U55G	271 ± 140 µM
A36U A48C	326 ± 200 µM
G29U U65C	996 ± 960 µM
U30A U47C C70G	970 ± 700 µM
U54G C68U	126 ± 96 µM
U65A G66A C67G C71U	893 ± 690 µM
C16G G40A	1140 ± 770 µM
G37A U54G	2900 ± 1600 µM

Variants of: B1
Assay: self-cleavage kobs at 2500 uM GlcN6P; higher = faster cleavage; RNA array
Conditions: with glucosamine-6-phosphate
Procedure, shortened: as §1

Variant	self-cleavage kobs at 2500 uM GlcN6P
U56C U69C	3.12e-05 ± 1.7e-05 s⁻¹
A39U G59A	1.77e-05 ± 1.3e-05 s⁻¹
A33U C68U	1.51e-05 ± 1.5e-05 s⁻¹
G43A U56G	2.04e-05 ± 1.3e-05 s⁻¹
A33U U54A C68A	2.88e-05 ± 2.8e-05 s⁻¹
U30G C58U	3.61e-05 ± 2.3e-05 s⁻¹

Variants of: B1
Assay: self-cleavage kobs at 10000 uM GlcN6P; higher = faster cleavage; RNA array
Conditions: with glucosamine-6-phosphate
Procedure, shortened: as §1

Variant	self-cleavage kobs at 10000 uM GlcN6P
A39U G59A	1.99e-05 ± 1e-05 s⁻¹
A33U C68U	1.58e-05 ± 9.7e-06 s⁻¹
A48U U65A	1.89e-05 ± 1.3e-05 s⁻¹
C8G C10U C70G	3.05e-05 ± 2.1e-05 s⁻¹
C8G G9U C61G C71G	3.51e-05 ± 2.5e-05 s⁻¹

Variants of: B1
Assay: self-cleavage kobs at 40 uM GlcN6P; higher = faster cleavage; RNA array
Conditions: with glucosamine-6-phosphate
Procedure, shortened: as §1

Variant	self-cleavage kobs at 40 uM GlcN6P
C10U C11U C50G G59U	4.53e-05 ± 3.3e-05 s⁻¹
C10A A14G U69G	0.000118 ± 6.2e-05 s⁻¹
G9C C50G U55A U57G C70U	5.67e-05 ± 2.9e-05 s⁻¹
G66A C68A	2.8e-05 ± 2.5e-05 s⁻¹
C8G C10U C70G	3.92e-05 ± 2.8e-05 s⁻¹
C8G G9U C61G C71G	4.03e-05 ± 2.7e-05 s⁻¹
C16G G40A	3.3e-05 ± 1.9e-05 s⁻¹

Looked up one by one from the list above (two):
Variant	self-cleavage kobs at 40 uM GlcN6P
C8G G9U C61G C71G	4.03e-05 ± 2.7e-05 s⁻¹
C10U C11U C50G G59U	4.53e-05 ± 3.3e-05 s⁻¹

Variants of: B1
Assay: self-cleavage kobs at 640 uM GlcN6P; higher = faster cleavage; RNA array
Conditions: with glucosamine-6-phosphate
Procedure, shortened: as §1

Variant	self-cleavage kobs at 640 uM GlcN6P
G9C C50G U55A U57G C70U	3.14e-05 ± 2.3e-05 s⁻¹
A42U C71A	2.7e-05 ± 1.5e-05 s⁻¹
A48U U65C	1.9e-05 ± 1.8e-05 s⁻¹
U46G U49G	2.49e-05 ± 1.9e-05 s⁻¹
U31A G44U	2.68e-05 ± 1.6e-05 s⁻¹
G29U U65C	1.47e-05 ± 1.1e-05 s⁻¹
U65A G66A C67G C71U	2.62e-05 ± 1.5e-05 s⁻¹

Variants of: B1
Assay: self-cleavage kobs at 160 uM GlcN6P; higher = faster cleavage; RNA array
Conditions: with glucosamine-6-phosphate
Procedure, shortened: as §1

Variant	self-cleavage kobs at 160 uM GlcN6P
G66A C68A	2.08e-05 ± 1.5e-05 s⁻¹
G29C U65G	2.4e-05 ± 1.6e-05 s⁻¹
A39C U45C	2.29e-05 ± 1.5e-05 s⁻¹
A33C A42G	1.85e-05 ± 1.8e-05 s⁻¹
A53U C58A	1.41e-05 ± 8.5e-06 s⁻¹
U54C C68G	2.68e-05 ± 1.9e-05 s⁻¹
G29U U65C	2.56e-05 ± 1.8e-05 s⁻¹
C16G G40A	3e-05 ± 2e-05 s⁻¹
